Results from paper PMC11705415.

By UniProt entry, the sequences of proteins in these tests, tags left out. Where a name states a change or a piece, a line headed by the entry shows the natural chain unless it says otherwise.
UniProt P62069: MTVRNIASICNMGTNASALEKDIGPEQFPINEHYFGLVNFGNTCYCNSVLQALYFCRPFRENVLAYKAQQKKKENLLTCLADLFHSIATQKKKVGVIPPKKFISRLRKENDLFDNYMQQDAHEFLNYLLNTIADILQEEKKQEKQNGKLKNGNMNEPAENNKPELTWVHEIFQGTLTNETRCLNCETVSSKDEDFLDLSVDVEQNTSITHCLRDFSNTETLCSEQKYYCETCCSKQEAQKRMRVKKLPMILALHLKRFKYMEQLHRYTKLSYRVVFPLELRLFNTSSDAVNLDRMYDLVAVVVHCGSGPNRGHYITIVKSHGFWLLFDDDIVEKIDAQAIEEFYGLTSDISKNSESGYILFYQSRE
UniProt Q8BH57: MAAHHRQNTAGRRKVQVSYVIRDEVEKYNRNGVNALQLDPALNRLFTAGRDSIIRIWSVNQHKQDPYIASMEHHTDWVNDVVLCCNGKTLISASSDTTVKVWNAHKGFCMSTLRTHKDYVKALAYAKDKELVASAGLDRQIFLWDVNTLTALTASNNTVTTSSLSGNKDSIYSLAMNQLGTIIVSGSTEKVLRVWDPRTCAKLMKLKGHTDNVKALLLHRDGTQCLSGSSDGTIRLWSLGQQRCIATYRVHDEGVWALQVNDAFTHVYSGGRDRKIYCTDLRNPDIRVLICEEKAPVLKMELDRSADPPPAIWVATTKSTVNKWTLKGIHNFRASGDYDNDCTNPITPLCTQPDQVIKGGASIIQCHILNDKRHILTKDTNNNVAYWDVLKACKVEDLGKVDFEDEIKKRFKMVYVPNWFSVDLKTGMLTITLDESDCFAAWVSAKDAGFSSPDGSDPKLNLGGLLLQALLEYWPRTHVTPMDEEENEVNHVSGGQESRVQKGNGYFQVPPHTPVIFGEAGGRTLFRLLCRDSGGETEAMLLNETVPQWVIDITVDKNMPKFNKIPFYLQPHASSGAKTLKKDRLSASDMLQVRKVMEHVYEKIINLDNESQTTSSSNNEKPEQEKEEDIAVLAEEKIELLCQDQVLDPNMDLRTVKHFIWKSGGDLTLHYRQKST
UniProt Q8CHE4: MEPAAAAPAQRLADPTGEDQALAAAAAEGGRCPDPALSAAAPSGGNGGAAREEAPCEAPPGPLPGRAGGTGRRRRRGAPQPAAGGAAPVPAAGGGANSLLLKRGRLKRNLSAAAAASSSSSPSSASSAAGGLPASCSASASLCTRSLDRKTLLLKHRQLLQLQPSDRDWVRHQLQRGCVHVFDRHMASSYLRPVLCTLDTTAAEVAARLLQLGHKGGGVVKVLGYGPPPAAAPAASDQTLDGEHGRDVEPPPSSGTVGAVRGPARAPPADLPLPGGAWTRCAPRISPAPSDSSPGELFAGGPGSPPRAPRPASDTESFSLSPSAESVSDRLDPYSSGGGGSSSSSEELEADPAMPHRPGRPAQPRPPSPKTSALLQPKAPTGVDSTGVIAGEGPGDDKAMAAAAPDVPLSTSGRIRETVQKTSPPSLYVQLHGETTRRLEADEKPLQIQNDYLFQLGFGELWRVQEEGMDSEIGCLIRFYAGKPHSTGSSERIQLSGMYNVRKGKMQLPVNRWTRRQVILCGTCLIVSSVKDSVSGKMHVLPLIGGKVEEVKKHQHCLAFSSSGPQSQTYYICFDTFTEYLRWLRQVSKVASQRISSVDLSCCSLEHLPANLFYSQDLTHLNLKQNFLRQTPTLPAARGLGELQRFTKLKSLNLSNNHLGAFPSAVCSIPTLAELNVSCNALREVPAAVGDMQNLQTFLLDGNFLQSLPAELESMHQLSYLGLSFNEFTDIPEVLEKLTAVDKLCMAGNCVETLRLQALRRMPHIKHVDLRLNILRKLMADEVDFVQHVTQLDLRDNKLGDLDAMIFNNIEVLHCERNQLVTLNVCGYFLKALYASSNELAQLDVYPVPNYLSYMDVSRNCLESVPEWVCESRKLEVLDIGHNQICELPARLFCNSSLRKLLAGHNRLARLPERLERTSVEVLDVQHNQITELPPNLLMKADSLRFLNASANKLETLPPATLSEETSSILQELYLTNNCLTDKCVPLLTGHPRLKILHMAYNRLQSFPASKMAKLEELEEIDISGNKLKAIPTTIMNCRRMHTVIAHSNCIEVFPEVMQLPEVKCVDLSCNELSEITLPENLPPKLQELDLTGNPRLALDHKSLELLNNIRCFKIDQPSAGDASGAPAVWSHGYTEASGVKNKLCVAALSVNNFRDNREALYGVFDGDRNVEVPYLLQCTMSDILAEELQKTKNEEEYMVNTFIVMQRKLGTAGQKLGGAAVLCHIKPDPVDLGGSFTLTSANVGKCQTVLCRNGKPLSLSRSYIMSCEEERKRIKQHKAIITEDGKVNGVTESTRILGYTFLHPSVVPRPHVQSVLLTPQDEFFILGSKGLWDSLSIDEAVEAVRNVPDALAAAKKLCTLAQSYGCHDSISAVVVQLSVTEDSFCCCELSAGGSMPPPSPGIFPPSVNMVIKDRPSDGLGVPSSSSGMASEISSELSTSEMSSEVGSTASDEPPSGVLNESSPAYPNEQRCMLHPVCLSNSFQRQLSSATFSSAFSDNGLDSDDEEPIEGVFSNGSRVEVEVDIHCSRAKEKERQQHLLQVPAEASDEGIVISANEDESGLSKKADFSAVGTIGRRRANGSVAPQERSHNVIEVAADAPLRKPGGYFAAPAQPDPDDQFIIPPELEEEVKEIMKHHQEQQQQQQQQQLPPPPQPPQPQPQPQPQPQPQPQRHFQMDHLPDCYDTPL

Tests used:
Assay in all cases: proximity labelling; BioID: knock-in Neuro2a cells stably expressing USP46 (WT or ΔK92)-BirA(R118G)-HA, 50 μM biotin for 24 h; lysis in TNE buffer with 0.1% Triton X-100; streptavidin Mag Sepharose pull-down, SDS-PAGE, LC-MS/MS; proteins of the CRAPome list and of intact Neuro2a cells excluded
[1] = molecular target: USP46-WT-BirA(R118G)-HA fusion protein (mouse) (UniProt P62069)
[2] = molecular target: USP46-ΔK92-BirA(R118G)-HA fusion protein (mouse) (UniProt P62069)
[3] = molecular target: USP46-WT-BirA(R118G)-HA fusion protein (mouse) (UniProt P62069); remark: listed apart in the source
[4] = molecular target: USP46-ΔK92-BirA(R118G)-HA fusion protein (mouse) (UniProt P62069); remark: listed apart in the source

Molecule	binding [1]	binding [2]	binding [3]	binding [4]
WDR48 (from UniProt Q8BH57 1-676)	binds	binds	–	–
DMWD (protein, UniProt Q08274 1-665, biotin (proximity-dependent biotinylation, sites not stated)) MAAGGAEGGPGPSAAMGDCAEIKSQFRTREGFYKLLPGDATRRSGPTSAQTPAPPQPTQPPPGPAAASGPGAAGPASSPPPAGPGPGPALPAVRLSLVRLGDPDGAGEPPSTPSGLGAGGDRVCFNLGRELYFYPGCCRSGSQRSIDLNKPIDKRIYKGTQPTCHDFNQFTAATETISLLVGFSAGQVQYLDLIKKDTSKLFNEERLIDKTKVTYLKWLPESESLFLASHASGHLYLYNVSHPCTSTPPQYSLLKQGEGFAVYAAKSKAPRNPLAKWAVGEGPLNEFAFSPDGRHLACVSQDGCLRVFHFDSMLLRGLMKSYFGGLLCVCWSPDGRYVVTGGEDDLVTVWSFTEGRVVARGHGHKSWVNAVAFDPYTTRAEEAASASADGDPSGEEEEPEVTSSDTGAPVSPLPKAGSITYRFGSAGQDTQFCLWDLTEDVLSPHPSLARTRTLPGTPGATPPASGSSRAGETGAGPLPRSLSRSNSLPHPAGGGKAGGPSASMEPGIPFSIGRFATLTLQERRDRGAEKEHKRYHSLGNISRGGSGGNSSNDKLSGPAPRSRLDPAKVLGTALCPRIHEVPLLEPLVCKKIAQERLTVLLFLEDCIITACQEGLICTWARPGKAFTDEETEAQAGQASWPRSPSKSVVEGISSQPGSSPSGTVV	–	–	binds	binds
WDR20 (protein, UniProt Q9D5R2 1-567, biotin (proximity-dependent biotinylation, sites not stated)) MATEGRGKETNEIKTHFTTREGLYRLLPHSEYSRPNRVPFNSQGSNPVRVSFVNLNDQTGNGNRLCFSVGRELYVYIYKGVRKAADLSKPIDKRIYKGTQPTCHDFNHLTATAESVSLLVGFSAGQVQLIDPIKKETSKLFNEERLIDKSRVTCVKWVPGSDSLFLVAHSSGNMYSYNVEHTYGTTAPHYQLLKQGESFAVHNCKSKSTRDLKWTVGEGALNEFAFSPDGKFLACVSQDGFLRVFNFDSAELHGTMKSYFGGLLCLCWSPDGKYIVTGGEDDLVTVWSFLDCRVIARGRGHKSWVSVVAFDPYTTSVEESDPMEFSDSDKNFQDLLHFGRDRANSTQSRLSKQNSTDSRPVSVTYRFGSVGQDTQLCLWDLTEDILFPHQPLSRARAHANVMNATGLPAGSNGSAVTTPGNSVPPPLPRSNSLPHSAVSNAASKGSVMDGAITSGVSKFALLSLHDRKERHHEKDRKRNHSMGHISSKSSDKLNLVNKAKTDPAKTLGTSLCPRMEDVPLLEPLICKKIAHERLTVLVFLEDCIVTACQEGFICTWARPGKVSKFQP	–	–	binds	binds

The next lines start with the values.

binding [1]	binding [2]	binding [3]	binding [4]	Molecule
binds	binds	–	–	PHLPP1 (from UniProt Q8CHE4 1-1687)
–	–	binds	–	VPS51 (protein, UniProt Q3UVL4 1-782, biotin (proximity-dependent biotinylation, sites not stated)) MAAAAAVGPGLGSGPGDSPEGPEADAPERRRKAHGMLKLYYGLSEGEVAGHPAGPDPLDPTDLNGAHFDPEVYLDKLRRECPLAQLMDSETDMVRQIRALDSDMQTLVYENYNKFISATDTIRKMKNDFRKMEDEMDRLATNMAVITNFSARISATLQDRHERITKLAGVHALLRKLQFLFELPSRLTKCVELGAYGQAVRYQGRARAVLQQYQHLPSFRAIQDDCQVITARLAQQLRQRFREGCSGAPEQAECVELLLALGEPAEELCEEFLAHARGRLEEELSSLEAELGPSPPAPDVLEFTDRGGNGFVGGLCQVAAAYQELFAAQGPAGAEKLAAFAQELGGRYFALVERRLAQEQGGSDNSLLVRALDRFHRRLRAPGALLAAAGLSESATEIVERVARERLSHHLQGLKAAFLSSLTDVRQALAAPRLAGKEGPSLAELLANVASSILSHIKTSLASVHLFTAKEVSFSNKPYFRGEFCSQGVREGLIVGFIRSMCQTAQSFCDSPGEKGGATPPALLLLLSRLCLDYETATISYILTLTDEQFLVQDQSPVTPVSTLCAEARETARRLLTHYVKVQGLVISQMLRKSVETRDWLSTLEPRNVRAVMKRVVEDTTAIDVQVGLLYEEGVRKAQSSDSSKRTFSVYSSSRQQGRYAPSYTPSAPMDTNLLSNIQKLFSERIDVFSPVEFNKVSVLTGIIKISLKTLLECVRLRTFGRFGLQQVQVDCHFLQLYLWRFVADEELVHLLLDEVVASAALRCPDPVPMEPSVVEVICERG
–	–	binds	–	VPS52 (protein, UniProt Q8C754 1-723, biotin (proximity-dependent biotinylation, sites not stated)) MAAAATMAAAARELVLRAGASDVEEEEGPLGGGSGLQEPLQLGELDITSDEFILDEVDVHIQANLEDELVKEALKTGVDLRHYSKQVELELQQIEQKSIRDYIQESENIASLHNQITACDAVLERMEQMLGAFQSDLSSISSEIRTLQEQSGAMNIRLRNRQAVRGKLGELVDGLVVPSALVTAILEAPVTEPRFLEQLQELDAKAAAVREQEAMGTAACADVRGVLDRLRVKAVTKIREFILQKIYSFRKPMTNYQIPQAALLKYRFFYQFLLGNERATAKEIRDEYVETLSKIYLSYYRSYVGRLMKVQYEEVAEKDDLMGVEDTAKKGFFSKPSLRSRNTIFTLGTRGTVISPAELEAPILVPHTAQRGEQRYPFEALFRSQHYALLDNSCREYLFICEFFIVSGPAAHDLFHAVMGRTLSMTLKHLESYLADCYDAIAVFLCIHIVLRFRNIAAKRDVPALDRYWEQVLALLWPRFELILEMNVQSVRSTDPQRLGGLDTRPHYITRRYAEFSSALVSINQTIPNERTLQLLGQLQVEVENFVLRVAAEFSSRKEQLVFLINNYDMMLGVLMERAADDSKEVESFQQLLNARTQEFIEELLSPPFGGLVAFVKEAEALIERGQAERLRGEEARVTQLIRGFGSSWKASVESLSQDVMRSFTNFRNGTSIIQGALTQLIQLYHRFHRVLSQPQLRALPARAELINIHHLMVELKKHKPNF
–	–	binds	–	VPS53 (protein, UniProt Q8CCB4 1-832, biotin (proximity-dependent biotinylation, sites not stated)) MMEEEELEFVEELEAVLQLTPEVQLAIEQVFPSQDPLDQADFNAVEYINTLFPTEQSLANIDDVVNKIRLKIRRLDDNIRTVVRGQTNVGQDGRQALEEAQKAIQQLFGKIKDIKDKAEKSEQMVKEITRDIKQLDHAKRHLTTSITTLNHLHMLAGGVDSLEAMTRRRQYGEVANLLQGVMNVLEHFHKYMGIPQIRQLSERVKAAQTELGQQILADFEEAFPSQGTKRPGGPSNVLRDACLVANILDPRIKQEIIKKFIKQHLSEYLVLFQENQDVAWLDKIDRRYAWVKRQLVDYEEKYGRMFPREWCMTERISVEFCHVTRAELSKIMRARAKEIEVKLLLFAIQRTTNFEGFLAKRFSGCTLTDGTLKKLESPPPSTNPFLEDETTPEMEELALEKGELEQPKKPKAPDNPFHGIVSKCFEPHLYVYIESQDKNLSELIDRFVADFKAQGPPKPNTDEGGAVLPSCADLFVYYKKCMVQCSQLSTGEPMIALTTIFQKYLREYAWKILSGNLPKTSSSSGGLTISSLLKEKEGSEVARFTLEELCLICSILSTAEYCLATTQQLEEKLKEKVDVSLTERINLTGEMDTFSTVISSSIQLLVQDLDAACDPALIAMSKMPWQNVEHVGDQSPYVTSVILHIKQNVPIIRDNLASTRKYFTQFCIKFANSFIPKFITHLFKCKPISMVGAEQLLLDTHSLKMVLLDLPSIGSQVVRKAPASYTKIVVKGMTRAEMILKVVMAPHEPLVVFVDNYIKLLTDCNSETFQKILDMKGLKRSEQSSMLELLRQRLPAPPSGTEGSSTLSLIAPTPEQESSRIRKLEKLIKKRL
–	–	binds	–	STRN (protein, UniProt O55106 1-780, biotin (proximity-dependent biotinylation, sites not stated)) MDEQAGPGVFFSNNHPGAGGAKGLGPLAEAAAAGDGAAAAGAARAQYSLPGILHFLQHEWARFEVERAQWEVERAELQAQIAFLQGERKGQENLKKDLVRRIKMLEYALKQERAKYHKLKYGTELNQGDMKPPSYDSDEGNETEVQPQQNSQLMWKQGRQLLRQYLQEVGYTDTILDVKSKRVRALLGFSSDVTDREDDKNQDSVINGTEAEVKETAMIGKSELTDSASVLDNFKFLESAAADVSDEDEDEDTDGRAKSVIDTSTIVRKKALPDTSEDRDTKEALKEFDFLVTSEEGDNESRSAGDGTDWEKEDQCLTPEAWNVDQGVISKLKEQYKKERKGKKGVKRPNRSKLQDMLANLRDVDELPSLQPSVGSPSRPSSSRLPEQELSRADEVEALTFPPSSGKSFIMGADEALESELGLGELAGLTVANEADSLAYDIANNKDALRKTWNPKFTLRSHFDGIRALAFHPIEPVLITASEDHTLKMWNLQKTAPAKKSTSLDVEPIYTFRAHKGPVLCVVMSSNGEQCYSGGTDGRIQSWSTTNPNVDPYDAYDPSVLRGPLLGHTDAVWGLAYSAAHQRLLSCSADGTLRLWNTTEVAPALSVFNDNQELGIPASVDLVSSDPSHMVASFSKGYTSIFNMETQQRVLTLESNVDSTSSSSCQINRVISHPTLPISITAHEDRHIKFYDNNTGKLIHSMVAHLEAVTSLAVDPNGLYLMSGSHDCSIRLWNLESKTCIQEFTAHRKKFEESIHDVAFHPSKCYIASAGADALAKVFV

Where two headings read alike, the source gives them in different places. These are yes or no findings as the source states them, for the method shown. Binding seen in cells or lysates may run through a third protein. Here binding means that the protein was enriched with, or labelled near, the bait; the list need not be complete.
